# Measured values from PubChem BioAssay (NCATS).
# Inconclusive means that the source gave no clear call. Such entries were picked first, then a sample of the others. Potencies of inconclusive entries are doubtful fits and often do not repeat. Active and inactive are the calls of the source. Calls follow the shape of the dose curve; as a rule, active = well fitted curve in the direction sought with a large enough effect; inconclusive = small, poorly fitted or top-dose-only effect, or another doubt; inactive = no such curve, though single readings can be large; an effect the other way counts as inactive or inconclusive.
# How the values were obtained:
# [1] = Quantitative High-Throughput drug screen in 47 multiple myeloma cell lines against the NCATS MIPE library collection: JIM3_ECACC cell viability assay (AID 1918963; also: nearly all actives have a fitted effect of over 35% in size)
# Outline: (§1)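 Viability readout: CellTiter-Glo luminescence following 5 min room-temperature incubation with reagent. Prior exposure: 48 h, 37C, humidified 5% CO2, 500 cells per well.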
# [2] = Quantitative High-Throughput drug screen in 47 multiple myeloma cell lines against the NCATS MIPE library collection: JIM1_ECACC cell viability assay (AID 1918964); settings: JIM1 myeloma viability, CellTiter-Glo ATP luminescence, 48 h; viability (% of DMSO): at 45.8 µM (top of the series)
# Outline: (§2)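 CellTiter-Glo luminescence (ATP) after 48 h compound exposure, 37C/5% CO2; 500 cells/well; MIPE 4.0 approved/investigational drugs pinned in; DMSO = 100%, media only = 0% viability.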
# [3] = Quantitative High-Throughput drug screen in 47 multiple myeloma cell lines against the NCATS MIPE library collection: INA6_PLB cell viability assay (AID 1918965; also: nearly all actives have a fitted effect of over 55% in size); settings: INA6 myeloma viability, CellTiter-Glo ATP luminescence, 48 h; series mostly up to 45.8 µM
# Outline: (§3)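 Approved and investigational drugs from MIPE 4.0 were added by pin tool to 500 cells per well. After 48 hours at 37C, ATP-based CellTiter-Glo luminescence indicated remaining viability.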
# [4] = Quantitative High-Throughput drug screen in 47 multiple myeloma cell lines against the NCATS MIPE library collection: JJN3_DSMZ cell viability assay (AID 1918966; also: nearly all actives have a fitted effect of over 50% in size)
# Outline: as §2
# [5] = Quantitative High-Throughput drug screen in 47 multiple myeloma cell lines against the NCATS MIPE library collection: Karpas25_ECACC cell viability assay (AID 1918968; also: nearly all actives have a fitted effect of over 35% in size)
# Outline: as §2
# [6] = Quantitative High-Throughput drug screen in 47 multiple myeloma cell lines against the NCATS MIPE library collection: KMS27_JCRB cell viability assay (AID 1918970); settings: KMS27 myeloma cells, CellTiter-Glo ATP viability, 48 h; viability (% of DMSO): at 45.8 µM (top of the series); also: nearly all actives have a fitted effect of over 30% in size
# Outline: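 ATP-based viability (CellTiter-Glo luminescence) is measured in cells treated 48 h with approved and investigational drugs at 37 °C. Controls are DMSO-only wells for full viability and media-only wells for none.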
# [7] = Quantitative High-Throughput drug screen in 47 multiple myeloma cell lines against the NCATS MIPE library collection: KMS12BM_JCRB cell viability assay (AID 1918971); settings: KMS12BM myeloma viability, CellTiter-Glo ATP, 48 h; viability, % of DMSO: at 45.8 µM (top of the series); also: nearly all actives have a fitted effect of over 35% in size
# Outline: as §1
# [8] = Quantitative High-Throughput drug screen in 47 multiple myeloma cell lines against the NCATS MIPE library collection: H1112_PLB cell viability assay (AID 1918967; also: nearly all actives have a fitted effect of over 30% in size)
# Outline: as §2
# [9] = Quantitative High-Throughput drug screen in 47 multiple myeloma cell lines against the NCATS MIPE library collection: KMS12PE_JCRB cell viability assay (AID 1918972); settings: KMS12PE myeloma viability, CellTiter-Glo ATP, 48 h; viability: at 45.8 µM (top of the series); also: nearly all actives have a fitted effect of over 30% in size
# Outline: as §3
# [10] = Quantitative High-Throughput drug screen in 47 multiple myeloma cell lines against the NCATS MIPE library collection: KHM11_PLB cell viability assay (AID 1918962); settings: KHM11 myeloma cell viability, CellTiter-Glo ATP luminescence, 48 h; series mostly up to 45.8 µM; also: nearly all actives have a fitted effect of over 35% in size
# Outline: as §1
# Potency is read from the fitted curve at half-maximal effect.
smiles,measurement,setting,value
O=C(O)c1cccnc1,Potency,[1],inactive
same,Potency,[2],"inconclusive: 0.0209 µM [cytotoxic, full curve, poor fit]"
same,Potency,[3],inactive
same,Potency,[4],"inconclusive: 0.935 µM [cytotoxic, full curve, poor fit]"
same,Potency,[5],"inconclusive: 4.69 µM [cytotoxic, full curve, poor fit]"
same,Potency,[6],"inconclusive: 1.87 µM [cytotoxic, partial curve, poor fit]"
same,Potency,[7],"inconclusive: 26.4 µM [cytotoxic, partial curve, poor fit]"
CC(C)(CO)[C@@H](O)C(=O)NCCC(=O)O,Potency,[1],inactive
same,Potency,[2],"inconclusive: 0.0047 µM [cytotoxic, full curve, poor fit]"
same,Potency,[3],"inconclusive: 9.35 µM [cytotoxic, partial curve, poor fit]"
same,Potency,[4],inactive
same,Potency,[8],inactive
same,Potency,[5],inactive
same,Potency,[6],inactive
same,Potency,[7],inactive
same,Potency,[9],inactive
CC[C@H](C)C(=O)O[C@H]1C[C@@H](C)C=C2C=C[C@H](C)[C@H](CC[C@@H]3C[C@@H](O)CC(=O)O3)[C@H]21,Potency,[1],"inconclusive: 16.6 µM [cytotoxic, partial curve]"
same,Potency,[2],"inconclusive: 2.96 µM [cytotoxic, partial curve, poor fit]"
same,Potency,[8],"inconclusive: 14.8 µM [cytotoxic, partial curve]"
same,Potency,[6],inactive
same,Potency,[7],"inconclusive: 18.7 µM [cytotoxic, partial curve, poor fit]"
same,Potency,[9],inactive
CN(CC(=O)N(Cc1ccc(C2CCCCC2)cc1)c1ccc(C(=O)O)c(O)c1)S(=O)(=O)c1c(F)c(F)c(F)c(F)c1F,Potency,[10],active: 14.8 µM
same,Potency,[4],active: 18.7 µM
same,Potency,[7],active: 29.6 µM
same,Potency,[9],active: 7.43 µM
CNC(=O)c1ccc2c(C(=Nc3cccc(CN(C)C)c3)c3ccccc3)c(O)[nH]c2c1,Potency,[1],"inconclusive: 18.7 µM [cytotoxic, partial curve]"
same,Potency,[2],"inconclusive: 0.469 µM [cytotoxic, full curve, poor fit]"
same,Potency,[3],active: 20.9 µM
same,Potency,[8],active: 14.8 µM
same,Potency,[7],inactive
CCC(=O)NCC[C@@H]1CCc2ccc3c(c21)CCO3,Potency,[1],active: 13.2 µM
same,Potency,[2],"inconclusive: 2.35 µM [cytotoxic, partial curve, poor fit]"
same,Potency,[3],"inconclusive: 4.18 µM [cytotoxic, partial curve, poor fit]"
same,Potency,[4],"inconclusive: 10.5 µM [cytotoxic, partial curve, poor fit]"
same,Potency,[8],"inconclusive: 20.9 µM [cytotoxic, single point]"
same,Potency,[7],inactive
same,Potency,[9],inactive
Nc1ncnc2c1c(-c1cccc(OCc3ccccc3)c1)cn2C1CC(CN2CCC2)C1 (stereo not drawn),Potency,[10],active: 16.6 µM
same,Potency,[7],"inconclusive: 33.2 µM [cytotoxic, single point]"
CC1=CC(=O)c2ccccc2C1=O,Potency,[1],active: 23.5 µM
same,Potency,[2],inactive
same,Potency,[3],active: 8.33 µM
same,Potency,[6],"inconclusive: 8.33 µM [cytotoxic, partial curve, poor fit]"
same,Potency,[7],"inconclusive: 33.2 µM [cytotoxic, single point]"
COc1ccc2[nH]cc(CCNC(C)=O)c2c1,Potency,[1],"inconclusive: 0.0935 µM [cytotoxic, full curve, poor fit]"
same,Potency,[3],"inconclusive: 5.9 µM [cytotoxic, partial curve, poor fit]"
same,Potency,[4],"inconclusive: 0.0019 µM [cytotoxic, full curve, poor fit]"
same,Potency,[6],inactive
O=C(CC12CC3CC(CC(C3)C1)C2)Nc1cccc2nc(NCCNCCO)ccc12,Potency,[1],active: 9.35 µM
same,Potency,[2],"inconclusive: 20.9 µM [cytotoxic, partial curve, poor fit]"
same,Potency,[6],active: 18.7 µM
Nc1nc(Cl)nc2c1ncn2[C@@H]1O[C@H](CO)[C@@H](O)[C@H]1F,Potency,[1],active: 0.418 µM
same,Potency,[2],"inconclusive: 0.0935 µM [cytotoxic, full curve, poor fit]"
same,Potency,[4],active: 0.372 µM
same,Potency,[8],"inconclusive: 0.0235 µM [cytotoxic, full curve]"
same,Potency,[6],"inconclusive: 37.2 µM [rising, partial curve, poor fit]"
same,Potency,[7],"inconclusive: 11.8 µM [cytotoxic, partial curve, poor fit]"
COc1ccc2c(c1)c(CC(=O)OCC(=O)O)c(C)n2C(=O)c1ccc(Cl)cc1,Potency,[10],"inconclusive: 0.0017 µM [rising, full curve, poor fit]"
same,Potency,[5],inactive
same,Potency,[6],"inconclusive: 0.0526 µM [cytotoxic, full curve, poor fit]"
same,Potency,[7],inactive
C=CCc1cccc(C=NNC(=O)CN2CCN(Cc3ccccc3)CC2)c1O,Potency,[10],active: 20.9 µM
same,Potency,[4],"inconclusive: 9.35 µM [cytotoxic, partial curve]"
same,Potency,[7],"inconclusive: 23.5 µM [cytotoxic, partial curve]"
C[C@@H](NCc1cc2ccccc2[nH]1)c1cccc2ccccc12,Potency,[1],inactive
same,Potency,[2],"inconclusive: 4.69 µM [cytotoxic, partial curve, poor fit]"
same,Potency,[3],active: 4.69 µM
same,Potency,[8],"inconclusive: 26.4 µM [cytotoxic, single point]"
same,Potency,[6],"inconclusive: 16.6 µM [cytotoxic, partial curve, poor fit]"
same,Potency,[9],"inconclusive: 20.9 µM [cytotoxic, single point]"
c1cc(N[C@@H]2CCNC2)nc(-c2cnc3ccc(-c4cn[nH]c4)cn23)c1,Potency,[1],"inconclusive: 29.6 µM [cytotoxic, single point]"
same,Potency,[2],active: 4.18 µM
same,Potency,[5],active: 5.9 µM
same,Potency,[6],active: 2.64 µM
same,Potency,[9],active: 16.6 µM
COc1ccc2c(c1OC)C(=O)OC2[C@H]1c2c(cc3c(c2OC)OCO3)CCN1C (stereo partly drawn),Potency,[10],"inconclusive: 0.0296 µM [cytotoxic, full curve, poor fit]"
same,Potency,[6],active: 0.132 µM
O=C1CSC(=O)N1C(CCc1ccncc1)COc1ccc(-c2cccc([N+](=O)[O-])c2)cc1 (stereo not drawn),Potency,[1],"inconclusive: 16.6 µM [cytotoxic, partial curve]"
same,Potency,[2],inactive
same,Potency,[3],active: 5.9 µM
same,Potency,[4],active: 18.7 µM
Clc1cccc(Cl)c1NC1=NCCN1,Potency,[1],inactive
same,Potency,[2],"inconclusive: 0.0372 µM [rising, full curve, poor fit]"
same,Potency,[3],"inconclusive: 6.62 µM [rising, partial curve, poor fit]"
same,Potency,[4],"inconclusive: 2.09 µM [rising, partial curve]"
same,Potency,[7],"inconclusive: 0.0053 µM [rising, full curve, poor fit]"
CN[C@@H]1CN(c2ccc3c(=O)c(C(=O)O)cn(-c4nccs4)c3n2)C[C@@H]1OC,Potency,[10],active: 14.4 µM
same,Potency,[5],active: 5.12 µM
same,Potency,[6],"inconclusive: 1.62 µM [cytotoxic, full curve, poor fit]"
same,Potency,[7],active: 0.645 µM
CCc1nc(-c2cccc(C)c2)c(-c2ccnc(NC(=O)c3ccccc3)c2)s1,Potency,[1],"inconclusive: 16.6 µM [cytotoxic, partial curve]"
same,Potency,[4],"inconclusive: 4.18 µM [cytotoxic, partial curve, poor fit]"
same,Potency,[7],active: 23.5 µM
CN(C)c1ccccc1CN1CCCN(Cc2ccccc2N(C)C)C1c1ccncc1,Potency,[1],"inconclusive: 11.8 µM [cytotoxic, partial curve]"
same,Potency,[2],"inconclusive: 26.4 µM [cytotoxic, single point]"
same,Potency,[4],"inconclusive: 26.4 µM [cytotoxic, single point]"
same,Potency,[8],"inconclusive: 13.2 µM [cytotoxic, partial curve]"
same,Potency,[6],"inconclusive: 16.6 µM [cytotoxic, partial curve, poor fit]"
same,Potency,[9],"inconclusive: 18.7 µM [cytotoxic, partial curve]"
NC(=O)C1CCCc2c1[nH]c1ccc(Cl)cc21 (stereo not drawn),Potency,[1],inactive
same,Potency,[2],"inconclusive: 37.2 µM [cytotoxic, single point]"
same,Potency,[3],"inconclusive: 0.0469 µM [cytotoxic, full curve, poor fit]"
same,Potency,[4],"inconclusive: 0.662 µM [cytotoxic, full curve, poor fit]"
same,Potency,[6],"inconclusive: 2.09 µM [cytotoxic, partial curve, poor fit]"
CNc1nccc(-c2cccnc2Oc2cc(C(=O)Nc3cccc(C(F)(F)F)c3)ccc2C)n1,Potency,[1],active: 18.7 µM
same,Potency,[2],active: 8.33 µM
same,Potency,[4],active: 18.7 µM
same,Potency,[7],"inconclusive: 29.6 µM [cytotoxic, single point]"
Cc1csc(-c2nnc(Nc3ccc(Oc4ncccc4-c4ccnc(N)n4)cc3)c3ccccc23)c1,Potency,[1],"inconclusive: 20.9 µM [cytotoxic, partial curve, poor fit]"
same,Potency,[2],"inconclusive: 16.6 µM [cytotoxic, partial curve, poor fit]"
same,Potency,[3],"inconclusive: 33.2 µM [cytotoxic, partial curve, poor fit]"
same,Potency,[4],active: 18.7 µM
same,Potency,[8],"inconclusive: 37.2 µM [cytotoxic, single point]"
same,Potency,[5],"inconclusive: 37.2 µM [cytotoxic, single point]"
same,Potency,[7],"inconclusive: 1.18 µM [cytotoxic, full curve, poor fit]"
CSc1cccc(Nc2ncc3cc(-c4c(Cl)cccc4Cl)c(=O)n(C)c3n2)c1,Potency,[1],"inconclusive: 20.9 µM [cytotoxic, partial curve, poor fit]"
same,Potency,[2],"inconclusive: 0.0469 µM [cytotoxic, full curve]"
same,Potency,[4],active: 3.32 µM
same,Potency,[5],"inconclusive: 13.2 µM [cytotoxic, partial curve]"
Cc1c(CN2CCN(S(C)(=O)=O)CC2)sc2c(N3CCOCC3)nc(-c3cnc(N)nc3)nc12,Potency,[1],active: 0.0662 µM
same,Potency,[2],active: 0.0187 µM
same,Potency,[9],"inconclusive: 0.187 µM [cytotoxic, full curve]"

# Given bar-delimited: part of the list above.
smiles | measurement | setting | value
Clc1cccc(Cl)c1NC1=NCCN1 | Potency | [2] | inconclusive: 0.0372 µM [rising, full curve, poor fit]
same | Potency | [3] | inconclusive: 6.62 µM [rising, partial curve, poor fit]
same | Potency | [4] | inconclusive: 2.09 µM [rising, partial curve]
same | Potency | [7] | inconclusive: 0.0053 µM [rising, full curve, poor fit]
